# Results taken from article PMC5818423.
# Results are given in words; binding and its absence hold for the method and conditions named. Binding seen in cells or lysates may run through a third protein.
# Molecular target: CD26-YFP (human CD26 / dipeptidyl peptidase IV fused to YFP on the C-terminal end) (human) (UniProt P27487)
# Assay: FRET or BRET; NanoBRET between two HEK-293T cell populations: cells with the Nluc donor mixed with cells with the YFP acceptor, 10 min in HBSS without shaking, without or with bovine ADA (0.01-10 ug/ml), bovine albumin (1 ug/ml) or ADA plus mAb TA5.9-CC1-4C8 (0.3 ug/ml); 5 uM coelenterazine H; pair: the two membrane proteins
substance,measurement,value
NMDAR1A-Nluc (human NMDA receptor subunit NMDAR1A fused to NanoLuc on the N-terminal end) (from UniProt Q05586 19-938),binding,no binding (tested: without or with 1 ug/ml bovine ADA)
